Measurements reported in PubChem BioAssay AID504774 (Drosophila RNAi Screening Center, 2011).
The screen tested about 23,000 reagents; below is a random part of those with a known target gene and a result. 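Values are quantile-normalised luminescence on an arbitrary scale; higher means more cells surviving MMS.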 Not all columns of the deposit are shown. Reagent sequences are not shown.

Screen: 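Fly genes whose loss alters survival after alkylation damage to DNA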 (primary screen)
System: Drosophila Kc167 cells
Reagent: long dsRNA against Drosophila genes, about 0.25 µg dsRNA per well
Time to read-out: about 6 days: 3 days knock-down, then 3 days with or without MMS
Conditions: methyl methanesulphonate 0.004% (w/v) for 3 days after knock-down
Read-out: 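ATP-dependent luminescence as a measure of live cells in MMS-exposed wells, quantile normalised within each plate, with replicate values also given as a mean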
Reading the numbers: mean viability with MMS and viability with MMS: higher = more surviving cells after MMS

The opening 3 entries as a preview:
target | DRSC id | mean viability with MMS | viability with MMS, replicate 1
Pvr (PDGF- and VEGF-receptor related) | DRSC03080 | 2.40e6 | 2.73e6
ppk (pickpocket) | DRSC03595 | 3.57e6 | 4.09e6
Obp56g (Odorant-binding protein 56g) | DRSC06432 | 3.48e6 | 3.99e6

The listing, from the start:
target | DRSC id | mean viability with MMS | viability with MMS, replicate 1
Pvr (PDGF- and VEGF-receptor related) | DRSC03080 | 2.40e6 | 2.73e6
ppk (pickpocket) | DRSC03595 | 3.57e6 | 4.09e6
Obp56g (Odorant-binding protein 56g) | DRSC06432 | 3.48e6 | 3.99e6
CG9592 | DRSC11078 | 3.49e6 | 4.04e6
CG16965 | DRSC02547 | 3.58e6 | 4.16e6
CG15155 | DRSC02456 | 3.45e6 | 3.87e6
CG15517 | DRSC15056 | 3.57e6 | 3.99e6
Aef1 (Adult enhancer factor 1) | DRSC11605 | 3.66e6 | 4.12e6
inaF-C | DRSC18902 | 3.60e6 | 4.12e6
CG33500 | DRSC09115 | 3.55e6 | 4.09e6
CG31693 | DRSC03674 | 3.56e6 | 4.11e6
pbl (pebble) | DRSC11381 | 3.58e6 | 4.00e6
CG8441 | DRSC07180 | 3.52e6 | 4.03e6
Tssk (Testis-specific serine/threonine kinase) | DRSC14784 | 3.54e6 | 4.01e6
cnk (connector enhancer of ksr) | DRSC07595 | 3.41e6 | 3.80e6
CG4781 | DRSC04488 | 3.45e6 | 3.66e6
CG12698 | DRSC19485 | 3.52e6 | 4.01e6
CG2150 | DRSC15420 | 3.66e6 | 4.14e6
CG12402 | DRSC14508 | 3.48e6 | 4.07e6
cato (cousin of atonal) | DRSC07589 | 3.54e6 | 3.95e6
CG10950 | DRSC06020 | 3.62e6 | 3.93e6
CG6696 | DRSC20004 | 3.54e6 | 4.07e6
CR31822 (pseudo) | DRSC01510 | 3.65e6 | 4.18e6
CG34458 | DRSC06925 | 3.58e6 | 4.12e6
DptA (Diptericin A) | DRSC07404 | 3.43e6 | 3.97e6
grnd (grindelwald) | DRSC02020 | 3.26e6 | 3.60e6
Ir87a (Ionotropic receptor 87a) | DRSC14836 | 3.79e6 | 4.24e6
Cyp313b1 (Cytochrome P450 313b1) | DRSC16629 | 3.64e6 | 4.00e6
